Experimental data: PubChem BioAssay AID1671195 (Yale University, 2021)
This is one part, drawn at random, of about 22,000 deposited reagents. About 1,510 of them (6.9%) count as active. 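Active includes knockdowns raising or lowering LDL uptake; positive z-scores mean more uptake, negative mean less.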

Aim: 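Knockdowns that increase or decrease uptake of fluorescent LDL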 (primary screen)
Cell system: human Huh7 hepatoma cells
Reagent: siRNA pool against human genes, 18 nM
Time to read-out: about 2 to 2.5 days of knockdown, then 8 h LDL uptake
Challenge: DiI-labelled LDL at 30 µg/ml for 8 h, in lipoprotein-deficient serum medium
Detection: 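Per-cell DiI-LDL intensity by automated imaging; well means scaled to the plate median and given as a robust z-score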
Reading the numbers: robust z-score: higher = more LDL uptake after knockdown
Call rule: 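Active when two or more replicates show a robust z-score above 2 or below -2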

The first 5 entries, to show the layout:
no.	target	PubChem SID	robust z-score, replicate 1	robust z-score, replicate 2	robust z-score, replicate 3	outcome
1	LOC151256 (retired record)	SID442883569	3.33	2.22	2.41	active
2	LEP	SID442902795	-1.14	-1.38	-0.924	inactive
3	PRMT3	SID442886886	1.01	1.07	1.03	inactive
4	GRK7	SID442889480	0.528	0.293	0.834	inactive
5	RGS19	SID442893428	-0.026	0.109	0.0715	inactive

The listing, repeating the preview:
no.	target	PubChem SID	robust z-score, replicate 1	robust z-score, replicate 2	robust z-score, replicate 3	outcome
1	LOC151256 (retired record)	SID442883569	3.33	2.22	2.41	active
2	LEP	SID442902795	-1.14	-1.38	-0.924	inactive
3	PRMT3	SID442886886	1.01	1.07	1.03	inactive
4	GRK7	SID442889480	0.528	0.293	0.834	inactive
5	RGS19	SID442893428	-0.026	0.109	0.0715	inactive
6	INSM2	SID442887405	0.543	0.926	1.29	inactive
7	FAM229B	SID442888614	0.362	0.942	0.768	inactive
8	TFAP4	SID442899150	-0.654	-0.917	-0.183	inactive
9	TLR7	SID442901012	-0.679	-0.943	-0.894	inactive
10	LOC440102 (retired record)	SID442888022	1.05	0.937	0.4	inactive
11	AKAP10	SID442904433	-1.6	-1.85	-1.47	inactive
12	TSC1	SID442895112	-0.149	-1.46	1.2	inactive
13	SNRPA1	SID442886720	1.17	1.01	1.05	inactive
14	OR11H6	SID442889907	0.24	0.716	0.517	inactive
15	IL12RB1	SID442901330	-0.574	-1.08	-0.999	inactive
16	BCHE	SID442891659	-0.273	0.753	0.295	inactive
17	ECH1	SID442887283	1.05	0.458	1.34	inactive
18	NT5C1B	SID442892830	0.147	-0.119	0.329	inactive
19	S100P	SID442892615	0.149	0.23	0.0547	inactive
20	CDH18	SID442898610	-0.679	-0.334	-0.542	inactive
21	MTCL2	SID442884223	2.08	1.91	0.726	active
22	MTCL2	SID442887315	1.21	1.22	0.398	inactive
23	NIPBL	SID442893771	0.0895	0.537	-0.591	inactive
24	SRPK2	SID442890807	0.281	0.435	0.383	inactive
25	LARP6	SID442899289	-0.684	-0.733	-0.388	inactive
26	CXCL10	SID442885545	2.8	0.148	1.46	inactive
27	LINC00869	SID442897362	0.395	-0.472	-1.06	inactive
28	SLC44A2	SID442891211	0.67	0.665	-0.387	inactive
29	GPAM	SID442889492	0.238	1.4	0.015	inactive
30	USP12	SID442899771	-0.569	-0.743	-0.688	inactive
31	SNCAIP	SID442904495	-1.61	-1.36	-2.05	inactive
32	LOC441734 (retired record)	SID442898824	-0.619	-0.671	-0.337	inactive
33	OR6C6	SID442903164	-1.36	-1.19	-1.15	inactive
34	PKDREJ	SID442895504	-0.235	-0.512	0.222	inactive
35	CARM1	SID442900590	-0.823	-0.368	-1.15	inactive
36	CLDN7	SID442890291	0.226	0.444	0.642	inactive
37	C22orf31	SID442896388	-0.098	0.121	-0.825	inactive
38	HTATSF1	SID442897219	0.236	-1.22	-0.0937	inactive
39	CD164	SID442890609	0.576	0.543	0.057	inactive
40	IGDCC3	SID442887464	1.42	0.723	0.583	inactive
41	LOC441997 (retired record)	SID442893440	0.175	0.0533	-0.0771	inactive
42	CA5A	SID442885783	1.61	1.46	1.05	inactive
43	MEP1B	SID442899825	-0.869	-0.675	-0.479	inactive
44	SMTNL1	SID442891467	0.779	-0.00869	0.0779	inactive
45	CSDC2	SID442891089	0.54	0.431	0.0282	inactive
46	AARS1	SID442890019	0.266	0.505	0.654	inactive
